# Assay results reported in the supplement of paper PMC4604168 (melanoma cell lines).
# Some of the results follow. Repeats are few or missing, and single values can be far off.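 Imaging used 1,536-well plates; nuclei positive for cleaved PARP by antibody were divided by total DNA-stained nuclei to yield the apoptosis fraction. Doses for screening kept most cells viable, and cell lines differ markedly in resting and induced cleaved-PARP levels.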
# Assays:
# Test in all cases: cleaved PARP positive nuclei fraction relative to DMSO control; melanoma cells; higher = more apoptosis
# Settings in all cases: library dose: low library concentration; 72 h
# WM115 = system: WM115
# WM1716 = system: WM1716
# WM1745 = system: WM1745
# WM3526 = system: WM3526
# WM3619 = system: WM3619
# WM451Lu = system: WM451Lu
Compound,cleaved PARP positive nuclei fraction (WM115),cleaved PARP positive nuclei fraction (WM1716),cleaved PARP positive nuclei fraction (WM1745),cleaved PARP positive nuclei fraction (WM3526),cleaved PARP positive nuclei fraction (WM3619),cleaved PARP positive nuclei fraction (WM451Lu)
"C[C@]1(O)C[C@@H](c2nc(-c3ccc4ccc(-c5ccccc5)nc4c3)c3c(N)nccn32)C1 + CS(=O)(=O)CCNCc1ccc(-c2ccc3ncnc(Nc4ccc(OCc5cccc(F)c5)c(Cl)c4)c3c2)o1 [lapatinib] (first compound 0.4 µM, partner dose 0.8 µM)",86.8%,126%,115%,101%,96.7%,331%
"C[C@@H](N)c1ccc(C(=O)Nc2ccnc3[nH]ccc23)cc1 + CCCS(=O)(=O)Nc1ccc(F)c(C(=O)c2c[nH]c3ncc(Cl)cc23)c1F [PLX4720] (first compound 0.4 µM, partner dose 0.08 µM)",189%,109%,115%,286%,116%,91.2%
"CS(=O)(=O)c1ccc(C(=O)Nc2ccc(Cl)c(-c3ccccn3)c2)c(Cl)c1 [vismodegib] + O=C(CCCCCCC(=O)Nc1ccccc1)NO [vorinostat] (first compound 1 µM, partner dose 0.08 µM)",56.3%,135%,88.4%,69%,97.1%,78.1%
"CC1(C)CCC(c2ccc(Cl)cc2)=C(CN2CCN(c3ccc(C(=O)NS(=O)(=O)c4ccc(N[C@H](CCN5CCOCC5)CSc5ccccc5)c(S(=O)(=O)C(F)(F)F)c4)cc3)CC2)C1 + COc1cc(N2CCC(N3CCN(C)CC3)CC2)ccc1Nc1ncc(Cl)c(Nc2ccccc2S(=O)(=O)C(C)C)n1 [NVP-TAE684] (first compound 0.4 µM, partner dose 0.08 µM)",60.1%,568%,572%,94%,122%,82.9%
"CS(=O)(=O)c1ccc(C(=O)Nc2ccc(Cl)c(-c3ccccn3)c2)c(Cl)c1 [vismodegib] + O=C1NC(=O)/C(=C/c2ccc(-c3ccc(F)cc3O)o2)S1 [AS252424] (first compound 1 µM, partner dose 1 µM)",74.7%,106%,103%,71.5%,77.3%,123%
"CC1(C)CCC(c2ccc(Cl)cc2)=C(CN2CCN(c3ccc(C(=O)NS(=O)(=O)c4ccc(N[C@H](CCN5CCOCC5)CSc5ccccc5)c(S(=O)(=O)C(F)(F)F)c4)cc3)CC2)C1 + CS(=O)(=O)c1ccc(C(=O)Nc2ccc(Cl)c(-c3ccccn3)c2)c(Cl)c1 [vismodegib] (first compound 0.4 µM, partner dose 1 µM)",532%,477%,304%,56%,123%,27.8%
"C[C@]1(O)C[C@@H](c2nc(-c3ccc4ccc(-c5ccccc5)nc4c3)c3c(N)nccn32)C1 + COc1cc(N2CCC(N3CCN(C)CC3)CC2)ccc1Nc1ncc(Cl)c(Nc2ccccc2S(=O)(=O)C(C)C)n1 [NVP-TAE684] (first compound 0.4 µM, partner dose 0.08 µM)",95.2%,89%,109%,102%,84.7%,66.7%
"C[C@@H](N)c1ccc(C(=O)Nc2ccnc3[nH]ccc23)cc1 + Cn1sc(=O)n(Cc2ccccc2)c1=O [TDZD-8] (first compound 0.4 µM, partner dose 0.4 µM)",190%,362%,2680%,55%,97.3%,35.9%
"CN(c1ncccc1CNc1nc(Nc2ccc3c(c2)CC(=O)N3)ncc1C(F)(F)F)S(C)(=O)=O + O=C(O)c1ccc(-c2c[nH]c3ncc(-c4ccccc4)cc23)cc1C1CCCC1 [GSK650394] (first compound 0.08 µM, partner dose 0.16 µM)",132%,108%,110%,55.6%,89.4%,189%
"C[C@@H](N)c1ccc(C(=O)Nc2ccnc3[nH]ccc23)cc1 + C[C@@H](Oc1cc(-c2cnn(C3CCNCC3)c2)cnc1N)c1c(Cl)ccc(F)c1Cl [Crizotinib] (first compound 0.4 µM, partner dose 0.2 µM)",62.4%,94.9%,112%,219%,84.8%,73.3%
"NC(=O)c1ccc(N(C(N)=O)c2c(F)cccc2F)nc1-c1ccc(F)cc1F + O=C(Nc1cccc(Cl)c1)Nc1ncc(CCNc2ncnc3ccsc23)s1 [SNS314] (first compound 0.4 µM, partner dose 0.0008 µM)",134%,67.5%,99.9%,158%,89.7%,52.1%
"NC(=O)c1ccc(N(C(N)=O)c2c(F)cccc2F)nc1-c1ccc(F)cc1F + CNC(=O)c1cc(Oc2ccc(NC(=O)Nc3ccc(Cl)c(C(F)(F)F)c3)cc2)ccn1 [sorafenib] (first compound 0.4 µM, partner dose 0.4 µM)",66.6%,58.9%,99.7%,92%,111%,188%
"Cn1cnc2c(F)c(Nc3ccc(Br)cc3Cl)c(C(=O)NOCCO)cc21 [selumetinib] + CN1CCN(c2ccc3nc(-c4c(N)c5c(F)cccc5[nH]c4=O)[nH]c3c2)CC1 [Dovitinib] (first compound 0.015 µM, partner dose 0.1 µM)",302%,294%,110%,117%,95.1%,44.8%
"CCN(CC)CCNC(=O)c1c(C)[nH]c(/C=C2\C(=O)Nc3ccc(F)cc32)c1C [sunitinib] + Nc1cccc2c1CN(C1CCC(=O)NC1=O)C2=O [lenalidomide] (first compound 0.4 µM, partner dose 1 µM)",89.3%,120%,123%,87.7%,80.7%,250%
"C[C@]1(O)C[C@@H](c2nc(-c3ccc4ccc(-c5ccccc5)nc4c3)c3c(N)nccn32)C1 + C=C(c1ccc(C(=O)O)cc1)c1cc2c(cc1C)C(C)(C)CCC2(C)C [Bexarotene] (first compound 0.4 µM, partner dose 2 µM)",39.1%,40.1%,149%,212%,105%,86.8%
"CC(=O)O[C@@]12CO[C@@H]1C[C@H](O)[C@@]1(C)C(=O)[C@H](O)C3=C(C)[C@@H](OC(=O)[C@H](O)[C@@H](NC(=O)OC(C)(C)C)c4ccccc4)C[C@@](O)([C@@H](OC(=O)c4ccccc4)[C@H]21)C3(C)C [Docetaxel] + C[C@@H]1CCN(C(=O)CC#N)C[C@@H]1N(C)c1ncnc2[nH]ccc12 [CP690550] (first compound 0.0001 µM, partner dose 1 µM)",404%,992%,181%,632%,139%,109%
"NC(=O)c1ccc(N(C(N)=O)c2c(F)cccc2F)nc1-c1ccc(F)cc1F + Cn1c(=O)n(-c2ccc(C(C)(C)C#N)cc2)c2c3cc(-c4cnc5ccccc5c4)ccc3ncc21 [NVP-BEZ235] (first compound 0.4 µM, partner dose 0.004 µM)",42.1%,116%,91.4%,90.6%,101%,155%
"C[C@@H](N)c1ccc(C(=O)Nc2ccnc3[nH]ccc23)cc1 + CC(=O)c1c(C)c2cnc(Nc3ccc(N4CCNCC4)cn3)nc2n(C2CCCC2)c1=O [palbociclib] (first compound 0.4 µM, partner dose 0.04 µM)",86.3%,155%,123%,116%,149%,62.1%
"NC(=O)c1ccc(N(C(N)=O)c2c(F)cccc2F)nc1-c1ccc(F)cc1F + Cn1cncc1[C@@](N)(c1ccc(Cl)cc1)c1ccc2c(c1)c(-c1cccc(Cl)c1)cc(=O)n2C [tipifarnib] (first compound 0.4 µM, partner dose 0.01 µM)",85.5%,117%,99.9%,66.2%,101%,117%
"CCCCCCCCc1ccc(CCC(N)(CO)CO)cc1 [fingolimod] + CN(C)S(=O)(=O)c1ccc2c(c1)/C(=C/c1cc3c([nH]1)CCCC3)C(=O)N2 [SU6656] (first compound 2 µM, partner dose 0.4 µM)",91.4%,112%,174%,76.7%,279%,81.8%
"Cn1cnc2c(F)c(Nc3ccc(Br)cc3Cl)c(C(=O)NOCCO)cc21 [selumetinib] + NC(=O)c1ccc(N(C(N)=O)c2c(F)cccc2F)nc1-c1ccc(F)cc1F [VX702] (first compound 0.015 µM, partner dose 0.4 µM)",229%,122%,115%,126%,103%,191%
"C[C@]1(O)C[C@@H](c2nc(-c3ccc4ccc(-c5ccccc5)nc4c3)c3c(N)nccn32)C1 + CN(C)S(=O)(=O)c1ccc2c(c1)/C(=C/c1cc3c([nH]1)CCCC3)C(=O)N2 [SU6656] (first compound 0.4 µM, partner dose 0.4 µM)",276%,55%,155%,151%,95.5%,194%
"COc1ccc(C2=N[C@@H](c3ccc(Cl)cc3)[C@@H](c3ccc(Cl)cc3)N2C(=O)N2CCNC(=O)C2)c(OC(C)C)c1 [Nutlin-3] + CC(C)(C)c1cnc(CSc2cnc(NC(=O)C3CCNCC3)s2)o1 [SNS-032] (first compound 0.1 µM, partner dose 0.01 µM)",95.8%,58.6%,214%,31.5%,217%,144%
"C[C@@H](N)c1ccc(C(=O)Nc2ccnc3[nH]ccc23)cc1 + Cn1cc(/C=C2\C(=O)Nc3cccnc32)c2ccccc21 [GW441756] (first compound 0.4 µM, partner dose 0.4 µM)",116%,131%,94.7%,63.5%,85.9%,174%
"CCN(CC)CCNC(=O)c1c(C)[nH]c(/C=C2\C(=O)Nc3ccc(F)cc32)c1C [sunitinib] + COc1ccc2c(c1)CCC1C2CCC2(C)C(NCCCCCCN3C(=O)C=CC3=O)CCC12 [U73122] (first compound 0.4 µM, partner dose 0.4 µM)",34%,81.2%,123%,173%,70.3%,40.3%

# Some of the entries so far, bar-delimited.
Compound | cleaved PARP positive nuclei fraction (WM115) | cleaved PARP positive nuclei fraction (WM1716) | cleaved PARP positive nuclei fraction (WM1745) | cleaved PARP positive nuclei fraction (WM3526) | cleaved PARP positive nuclei fraction (WM3619) | cleaved PARP positive nuclei fraction (WM451Lu)
Cn1cnc2c(F)c(Nc3ccc(Br)cc3Cl)c(C(=O)NOCCO)cc21 [selumetinib] + NC(=O)c1ccc(N(C(N)=O)c2c(F)cccc2F)nc1-c1ccc(F)cc1F [VX702] (first compound 0.015 µM, partner dose 0.4 µM) | 229% | 122% | 115% | 126% | 103% | 191%
C[C@]1(O)C[C@@H](c2nc(-c3ccc4ccc(-c5ccccc5)nc4c3)c3c(N)nccn32)C1 + CN(C)S(=O)(=O)c1ccc2c(c1)/C(=C/c1cc3c([nH]1)CCCC3)C(=O)N2 [SU6656] (first compound 0.4 µM, partner dose 0.4 µM) | 276% | 55% | 155% | 151% | 95.5% | 194%
